This is an account of results in US20040170969A1.

No constants are given. Whether binding was seen depends on the method and setting. Binding seen in cells or lysates may run through a third protein. Binding can be weak; no strength is given. Tags and fused reporters may be left off the sequences shown.

In this test the target is T1, Flag-epitope-tagged murine Ras-GRF2 (murine) (UniProt P70392).
T1 sequence (looked up): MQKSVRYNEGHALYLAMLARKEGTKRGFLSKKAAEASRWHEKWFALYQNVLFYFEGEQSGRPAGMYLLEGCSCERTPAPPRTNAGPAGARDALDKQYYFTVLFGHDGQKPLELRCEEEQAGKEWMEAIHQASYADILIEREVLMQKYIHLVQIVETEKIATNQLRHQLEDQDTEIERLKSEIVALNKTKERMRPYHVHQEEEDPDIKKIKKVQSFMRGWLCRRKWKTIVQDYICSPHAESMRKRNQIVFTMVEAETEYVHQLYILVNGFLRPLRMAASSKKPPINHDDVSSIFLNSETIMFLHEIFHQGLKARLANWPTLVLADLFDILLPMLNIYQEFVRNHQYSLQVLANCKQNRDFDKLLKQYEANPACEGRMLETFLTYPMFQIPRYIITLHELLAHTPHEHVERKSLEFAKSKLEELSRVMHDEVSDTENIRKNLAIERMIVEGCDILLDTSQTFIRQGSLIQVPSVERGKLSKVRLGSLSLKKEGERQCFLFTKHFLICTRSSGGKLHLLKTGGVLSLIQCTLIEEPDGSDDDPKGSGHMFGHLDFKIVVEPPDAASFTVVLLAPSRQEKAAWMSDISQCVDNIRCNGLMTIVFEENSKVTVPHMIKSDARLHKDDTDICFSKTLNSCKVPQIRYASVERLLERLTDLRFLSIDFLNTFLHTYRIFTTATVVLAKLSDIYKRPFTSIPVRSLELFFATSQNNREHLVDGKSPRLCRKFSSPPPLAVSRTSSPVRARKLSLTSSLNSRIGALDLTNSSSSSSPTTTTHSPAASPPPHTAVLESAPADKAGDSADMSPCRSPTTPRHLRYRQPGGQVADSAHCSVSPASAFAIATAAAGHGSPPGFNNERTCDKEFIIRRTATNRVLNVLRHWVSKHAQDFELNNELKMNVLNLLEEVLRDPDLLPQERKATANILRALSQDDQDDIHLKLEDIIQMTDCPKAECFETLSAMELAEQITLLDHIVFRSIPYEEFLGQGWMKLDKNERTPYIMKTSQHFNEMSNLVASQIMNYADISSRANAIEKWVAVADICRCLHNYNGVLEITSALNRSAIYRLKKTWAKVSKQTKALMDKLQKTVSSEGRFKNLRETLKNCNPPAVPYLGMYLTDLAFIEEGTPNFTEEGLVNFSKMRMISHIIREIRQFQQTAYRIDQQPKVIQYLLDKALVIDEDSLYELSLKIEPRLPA
Put plainly: anti-FLAG co-IP of Flag-GRF2, MS; isolated from cells expressing Ras N17.

On to “H-Ras (GI 4885425) (from UniProt P01112) (enzyme)”, for which the binding entry was “binds”.
